Measurements reported in patent US20240390460A1 (Regeneron, published 2024).
No constants are given. Whether binding was seen depends on the method and setting.

Molecular target: T1, Human IL2RG M145K (human) (UniProt P31785)
T1 sequence: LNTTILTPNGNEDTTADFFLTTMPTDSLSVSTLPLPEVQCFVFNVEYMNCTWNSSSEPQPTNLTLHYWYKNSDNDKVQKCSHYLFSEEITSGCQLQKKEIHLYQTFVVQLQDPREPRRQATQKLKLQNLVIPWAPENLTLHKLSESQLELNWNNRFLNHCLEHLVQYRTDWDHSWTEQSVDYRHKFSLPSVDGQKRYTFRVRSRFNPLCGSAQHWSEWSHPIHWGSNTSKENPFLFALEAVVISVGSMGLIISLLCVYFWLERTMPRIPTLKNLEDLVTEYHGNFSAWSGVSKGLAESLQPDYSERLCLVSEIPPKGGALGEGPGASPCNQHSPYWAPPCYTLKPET
Assay: flow cytometry on iNK cells engineered with the M145K IL2RG mutation

B1: REGN7257 (antibody, human IgG4 S228P, kappa, V domains shown)
VH: EVQLVESGGGLVQPGGSLRLSCAASGFIFSSYEMHWVRQAPGKGLEWISYISSSGTTIYYADSVKGRFTISRDNAKNSLYLHMNSLRAEDTAVYYCTRARITGTFDVFDIWGQGTMVTVSS
VL: DIQMTQSPSSLSASVGDRVTITCRASQSISSYLNWYQQKPGKAPKLLIFAASNLQSGVPSRFSGSRSGTDFTLTISSLQPEDFATYYCQQNYNIPYTFGQGTKLEIKR
notes: also called H4H12889P; anti-IL2RG antibody
- binding: no binding
